Experimental data published in PMC11347664, “KHSRP ameliorates acute liver failure by regulating pre-mRNA splicing through its interaction with SF3B1” (Cell Death & Disease, 2024).
Results are given in words; binding and its absence hold for the method and conditions named. Binding seen in cells or lysates may run through a third protein. Some entries that bind do so weakly or less than the wild type.

By UniProt entry, the sequences of proteins in these tests, tags left out. Where a name states a change or a piece, a line headed by the entry shows the natural chain unless it says otherwise.
UniProt O75533: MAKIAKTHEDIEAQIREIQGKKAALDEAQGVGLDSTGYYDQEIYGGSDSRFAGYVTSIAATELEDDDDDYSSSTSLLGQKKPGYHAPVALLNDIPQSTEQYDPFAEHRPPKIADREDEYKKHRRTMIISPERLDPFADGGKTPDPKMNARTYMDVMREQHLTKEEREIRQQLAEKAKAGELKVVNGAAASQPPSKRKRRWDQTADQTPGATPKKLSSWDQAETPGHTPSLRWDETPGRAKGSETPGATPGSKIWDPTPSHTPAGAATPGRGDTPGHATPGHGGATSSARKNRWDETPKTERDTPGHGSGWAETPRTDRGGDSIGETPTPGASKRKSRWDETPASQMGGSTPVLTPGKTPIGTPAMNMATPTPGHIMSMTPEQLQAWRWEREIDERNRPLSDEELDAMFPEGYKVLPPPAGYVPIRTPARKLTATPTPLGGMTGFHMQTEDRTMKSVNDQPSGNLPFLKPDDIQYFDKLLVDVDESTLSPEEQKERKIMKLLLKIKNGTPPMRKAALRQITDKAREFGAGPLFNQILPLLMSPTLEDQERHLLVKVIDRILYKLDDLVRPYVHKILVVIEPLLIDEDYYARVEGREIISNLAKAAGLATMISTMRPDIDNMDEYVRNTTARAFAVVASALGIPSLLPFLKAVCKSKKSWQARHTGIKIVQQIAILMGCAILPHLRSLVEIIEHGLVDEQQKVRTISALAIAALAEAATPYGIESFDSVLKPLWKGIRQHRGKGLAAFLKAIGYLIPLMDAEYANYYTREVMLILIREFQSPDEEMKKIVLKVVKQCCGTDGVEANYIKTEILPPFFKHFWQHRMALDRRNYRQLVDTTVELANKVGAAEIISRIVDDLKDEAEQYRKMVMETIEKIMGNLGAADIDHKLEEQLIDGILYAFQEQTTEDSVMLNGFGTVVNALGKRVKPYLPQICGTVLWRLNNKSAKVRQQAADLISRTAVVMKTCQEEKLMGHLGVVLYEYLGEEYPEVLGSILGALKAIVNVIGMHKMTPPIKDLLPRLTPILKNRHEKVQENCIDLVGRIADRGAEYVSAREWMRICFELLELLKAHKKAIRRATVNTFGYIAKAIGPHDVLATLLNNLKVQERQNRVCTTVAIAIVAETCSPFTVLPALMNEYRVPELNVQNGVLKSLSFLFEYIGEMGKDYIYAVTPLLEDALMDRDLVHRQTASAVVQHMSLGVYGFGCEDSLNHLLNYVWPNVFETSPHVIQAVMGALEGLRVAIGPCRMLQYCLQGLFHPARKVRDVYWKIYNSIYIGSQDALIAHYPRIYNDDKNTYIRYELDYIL
UniProt Q15393: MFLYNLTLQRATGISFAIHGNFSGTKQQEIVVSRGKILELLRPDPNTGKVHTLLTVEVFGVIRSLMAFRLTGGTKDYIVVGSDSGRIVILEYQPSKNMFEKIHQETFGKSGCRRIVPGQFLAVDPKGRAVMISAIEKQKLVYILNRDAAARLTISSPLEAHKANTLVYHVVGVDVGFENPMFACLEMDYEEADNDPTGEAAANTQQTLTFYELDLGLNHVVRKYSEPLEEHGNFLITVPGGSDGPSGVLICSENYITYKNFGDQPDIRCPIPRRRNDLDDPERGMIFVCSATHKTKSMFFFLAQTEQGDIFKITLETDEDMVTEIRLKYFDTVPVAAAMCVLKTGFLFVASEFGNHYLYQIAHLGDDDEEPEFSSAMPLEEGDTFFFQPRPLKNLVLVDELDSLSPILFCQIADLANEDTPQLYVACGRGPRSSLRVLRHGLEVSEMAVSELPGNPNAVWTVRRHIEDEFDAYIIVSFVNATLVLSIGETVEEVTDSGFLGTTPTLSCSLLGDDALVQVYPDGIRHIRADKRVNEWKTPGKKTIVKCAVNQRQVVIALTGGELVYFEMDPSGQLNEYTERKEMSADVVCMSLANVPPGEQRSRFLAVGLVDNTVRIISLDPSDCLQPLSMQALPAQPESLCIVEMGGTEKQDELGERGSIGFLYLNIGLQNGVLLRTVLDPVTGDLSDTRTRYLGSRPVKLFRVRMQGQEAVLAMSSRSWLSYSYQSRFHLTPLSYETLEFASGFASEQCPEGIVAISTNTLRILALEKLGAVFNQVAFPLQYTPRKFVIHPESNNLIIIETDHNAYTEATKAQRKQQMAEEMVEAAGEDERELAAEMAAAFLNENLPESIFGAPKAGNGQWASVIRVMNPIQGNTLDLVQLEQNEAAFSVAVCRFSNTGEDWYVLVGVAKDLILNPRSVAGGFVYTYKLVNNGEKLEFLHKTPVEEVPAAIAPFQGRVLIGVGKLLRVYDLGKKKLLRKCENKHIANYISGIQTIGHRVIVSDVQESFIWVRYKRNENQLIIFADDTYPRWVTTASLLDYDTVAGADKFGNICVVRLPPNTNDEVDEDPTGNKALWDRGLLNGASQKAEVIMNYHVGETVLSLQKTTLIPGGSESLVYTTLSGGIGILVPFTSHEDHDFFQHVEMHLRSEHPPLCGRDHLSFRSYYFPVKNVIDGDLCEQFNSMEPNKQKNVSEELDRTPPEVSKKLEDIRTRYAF

What was measured:
[1] = biological target: T1, KH-type splicing regulatory protein (human (endogenous in HL7702)) (UniProt Q92945); experiment: co-IP; HL7702 cells that overexpressed different HA-tagged SF3B1 truncations; KHSRP detected
T1 sequence: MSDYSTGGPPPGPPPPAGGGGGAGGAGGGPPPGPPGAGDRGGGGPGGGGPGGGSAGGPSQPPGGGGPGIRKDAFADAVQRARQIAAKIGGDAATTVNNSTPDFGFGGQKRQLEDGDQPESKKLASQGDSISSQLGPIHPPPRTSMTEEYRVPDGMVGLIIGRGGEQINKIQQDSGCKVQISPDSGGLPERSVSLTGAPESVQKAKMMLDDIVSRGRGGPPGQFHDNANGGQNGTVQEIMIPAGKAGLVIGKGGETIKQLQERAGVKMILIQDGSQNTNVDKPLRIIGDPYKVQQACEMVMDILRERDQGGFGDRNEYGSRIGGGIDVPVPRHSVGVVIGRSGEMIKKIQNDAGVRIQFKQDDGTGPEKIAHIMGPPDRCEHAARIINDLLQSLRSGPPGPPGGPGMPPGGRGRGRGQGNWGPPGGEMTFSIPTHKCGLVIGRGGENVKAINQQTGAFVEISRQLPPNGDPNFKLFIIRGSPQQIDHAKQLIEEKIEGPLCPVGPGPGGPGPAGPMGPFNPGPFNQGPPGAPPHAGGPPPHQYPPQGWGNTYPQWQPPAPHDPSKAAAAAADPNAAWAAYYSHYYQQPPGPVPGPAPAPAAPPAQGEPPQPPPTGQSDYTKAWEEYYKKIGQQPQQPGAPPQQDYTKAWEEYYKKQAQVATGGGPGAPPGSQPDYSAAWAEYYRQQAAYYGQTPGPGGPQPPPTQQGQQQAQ

[2] = biological target: T1, KH-type splicing regulatory protein (human (endogenous in HL7702)); experiment: co-IP; protein extracts from HL7702 cells immunoprecipitated with antibodies for KHSRP or SF3B1 and immunoblotted for the indicated proteins

binding [1] | binding [2] | Substance
binds | – | HA-SF3B1 amino acids 955–1304 (HEAT 11–22 domain) (from UniProt O75533 955-1304) (domain or fragment)
– | binds | SF3B3 (from UniProt Q15393 1-1217)
– | binds | splicing factor 3b subunit 1 (from UniProt O75533 1-1304)
